Measured values: publication PMC5846061
No constants are given. Whether binding was seen depends on the method and setting. In cells and extracts the contact can be indirect. Some entries that bind do so weakly or less than the wild type.

Amino acid sequences for entries named in this document (tags omitted).
UniProt Q9Y265: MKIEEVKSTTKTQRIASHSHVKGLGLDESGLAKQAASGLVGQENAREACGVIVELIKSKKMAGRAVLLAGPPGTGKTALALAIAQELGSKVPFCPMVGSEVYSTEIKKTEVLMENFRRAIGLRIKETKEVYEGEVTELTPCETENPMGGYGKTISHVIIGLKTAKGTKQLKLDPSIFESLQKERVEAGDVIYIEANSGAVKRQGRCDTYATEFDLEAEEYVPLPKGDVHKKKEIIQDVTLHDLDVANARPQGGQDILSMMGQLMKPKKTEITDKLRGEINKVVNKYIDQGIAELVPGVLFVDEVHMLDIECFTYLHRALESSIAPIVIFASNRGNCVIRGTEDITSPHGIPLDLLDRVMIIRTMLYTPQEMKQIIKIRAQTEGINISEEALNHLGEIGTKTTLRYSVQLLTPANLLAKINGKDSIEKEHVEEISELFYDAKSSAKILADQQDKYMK
UniProt Q13547: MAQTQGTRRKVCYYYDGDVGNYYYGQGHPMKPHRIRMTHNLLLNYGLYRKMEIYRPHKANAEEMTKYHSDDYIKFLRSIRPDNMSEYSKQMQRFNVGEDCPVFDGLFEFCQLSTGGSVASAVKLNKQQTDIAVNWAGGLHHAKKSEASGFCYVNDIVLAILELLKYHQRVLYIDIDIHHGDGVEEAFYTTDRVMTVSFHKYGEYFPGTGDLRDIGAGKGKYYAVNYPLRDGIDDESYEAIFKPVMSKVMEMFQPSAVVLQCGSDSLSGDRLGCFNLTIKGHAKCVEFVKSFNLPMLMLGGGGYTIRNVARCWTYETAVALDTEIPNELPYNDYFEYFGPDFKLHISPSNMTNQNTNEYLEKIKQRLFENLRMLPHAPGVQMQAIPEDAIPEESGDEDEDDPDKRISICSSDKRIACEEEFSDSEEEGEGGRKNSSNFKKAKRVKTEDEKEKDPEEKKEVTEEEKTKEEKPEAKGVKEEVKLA

Tests used:
[1] = biological target: 3xFLAG-tagged ING3 Y362A (human) (UniProt Q9NXR8); assay: co-IP; HEK293T transfected with FLAG-tagged ING3 constructs; α-FLAG immunoprecipitates blotted with α-TIP49A
[2] = biological target: 3xFLAG-tagged ING3 W385A (human) (UniProt Q9NXR8); assay: as above
[3] = biological target: 3xFLAG-tagged ING3, wild type (human) (UniProt Q9NXR8); assay: as above
[4] = biological target: 3xFLAG-tagged ING3, wild type (human) (UniProt Q9NXR8); assay: co-IP; FLAG-ING3 and YFP-HDAC1 co-expressed in HEK293T; immunoprecipitated with α-FLAG M2 agarose, blotted with α-GFP
[5] = biological target: ING3 in LNCaP cells (human) (UniProt Q9NXR8); assay: co-IP; LNCaP cells, mild immunoprecipitation conditions; no figure shown

In the case of TIP49A (from UniProt Q9Y265 1-456), the binding [1] is reported as “binds”, the binding [2] is reported as “binds” and the binding [3] is reported as “binds”.

In the case of “YFP-HDAC1 (from UniProt Q13547 1-482) (enzyme)”, the binding [4] is reported as “binds”.

“p53 in LNCaP cells (from UniProt P04637 1-393)” was tested, and the binding [5] was “no binding”.
